{
  "source": "patent US20250122255A1",
  "key": {"[1]": {"target": "T1, PP4R3α, regulatory subunit of the protein phosphatase 4 (PP4) complex (human) (UniProt Q6IN85)", "T1 sequence (looked up)": "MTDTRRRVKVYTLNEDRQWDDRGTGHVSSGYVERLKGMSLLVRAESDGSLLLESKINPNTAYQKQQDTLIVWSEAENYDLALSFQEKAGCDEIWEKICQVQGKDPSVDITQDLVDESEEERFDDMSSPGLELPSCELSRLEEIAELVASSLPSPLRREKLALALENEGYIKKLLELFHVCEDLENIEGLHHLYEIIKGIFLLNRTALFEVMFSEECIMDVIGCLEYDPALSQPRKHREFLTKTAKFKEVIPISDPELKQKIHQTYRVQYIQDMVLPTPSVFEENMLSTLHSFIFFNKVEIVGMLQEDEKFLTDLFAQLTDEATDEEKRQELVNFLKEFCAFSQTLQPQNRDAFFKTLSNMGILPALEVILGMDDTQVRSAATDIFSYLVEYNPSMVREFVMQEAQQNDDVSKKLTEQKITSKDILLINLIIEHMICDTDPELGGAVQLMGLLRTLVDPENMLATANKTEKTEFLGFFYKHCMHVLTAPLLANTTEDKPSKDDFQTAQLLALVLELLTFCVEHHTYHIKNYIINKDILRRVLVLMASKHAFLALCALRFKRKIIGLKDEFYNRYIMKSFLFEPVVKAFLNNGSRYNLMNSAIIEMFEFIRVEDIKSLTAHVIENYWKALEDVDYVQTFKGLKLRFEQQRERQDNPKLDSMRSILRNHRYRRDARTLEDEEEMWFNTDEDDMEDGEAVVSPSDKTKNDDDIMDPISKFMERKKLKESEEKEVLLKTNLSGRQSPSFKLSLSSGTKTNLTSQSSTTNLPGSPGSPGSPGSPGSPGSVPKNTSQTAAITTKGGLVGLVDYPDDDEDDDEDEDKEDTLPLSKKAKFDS", "experiment": "co-immunoprecipitation, western blot"}, "[2]": {"target": "PP4R3β, regulatory subunit of the protein phosphatase 4 (PP4) complex (human) (UniProt Q5MIZ7)", "experiment": "co-immunoprecipitation, western blot"}},
  "note": "Results are given in words; binding and its absence hold for the method and conditions named. Binding seen in cells or lysates may run through a third protein. Some entries that bind do so weakly or less than the wild type. Sequences can lack the tags named with a protein.",
  "data": [
    {"binder": "C-terminally tagged CT45A5 (V5 tag) (protein, not shown: small tags and cut ends) MTDKTEKVAVDPETVFKRPRECDSPSYQKRQRMALLARKQGAGDSLIAGSAMSKEKKLMTGHAIPPSQLDSQIDDFTGFSKDGMMQKPGSNAPVGGNVTSSFSGDDLECRETASSPKSQREINADIKRKLVKELRCVGQKYEKIFEMLEGVQGPTAVRKRFFESIIKEAARCMRRDFVKHLKKKLKRMI", "values": [
      {"measurement": "binding", "setting": "[1]", "result": "binds"},
      {"measurement": "binding", "setting": "[2]", "result": "binds"}
    ]}
  ]
}
